Earlier results, collected in publication PMC10112881 (Cell reports, 2023).

System: head-twitch response
Settings: cited from earlier work

CCN(CC)C(=O)N[C@H]1C=C2c3cccc4[nH]cc(c34)C[C@H]2N(C)C1 [Lisuride]
activity in the HTR paradigm: inactive in the HTR paradigm
